At least one structure is not confirmed: it was looked up by name or label, or the drawing left a doubt.
Assay: Hydroxyapatite assay (hydroxyapatite adsorption chromatography)
Assay type: physicochemical
Details: corrected retention K=(retention time-void time)/void on TSK-Gel HA 1000 HPLC column; linear gradient 10 mM to 500 mM sodium phosphate, 0.15 N NaCl, pH 6.8
Method: Hydroxyapatite is the principal mineral component of bone. Hydroxyapatite adsorption chromatography is used as an assay to evaluate the bone-targeting potential of both individual bone-targeting moieties (“monomers”) and of pharmaceuticals incorporating bone-targeting groups.
Method: The rentention time of a test compound is measured using a linear gradient from 10 mM sodium phosphate, 0.15 N NaCl, pH=6.8 to 500 mM sodium phosphate, 0.15 N NaCl, […] on a TSK-Gel HA 1000 high pressure liquid chromatography column (7.5 mm×75 mm). The rentention time of the compound is expressed in terms of K=(retention time-void time)/void. This K value is corrected using two reference compounds to correct from inter-column and inter-system variation to obtain a K′ value.
Reference Compounds: K′ values were determined for known bone targeted compounds, the bisphosphonate, alendronate and tetracycline.

## CN(C)[C@@H]1C(O)=C(C(N)=O)C(=O)[C@@]2(O)C(O)=C3C(=O)c4c(O)cccc4[C@@](C)(O)[C@H]3C[C@@H]12 [tetracycline]
  K′ value: 2.0

From patent publication US6878697B2, “Phenylamino-pyrimidines and uses thereof” (Ariad Pharmaceuticals, Inc., priority 2001, dated 2005)
